Consider 28 variants from the supplement of paper PMC7125110.

± gives the standard error. Many of these values have a large error.

The chains are these.
B1: glmS ribozyme (parent)
chain: AUAAAAGCGCCAGAACUACAGAAAUGUAGUUGACGAGGAGGAGGUUUAUCGAAUUUUCGGCGGAUGCCUCCAAA

In the first data set the parent is B1. The experiment in a line: self-cleavage kobs at 640 uM GlcN6P; higher = faster cleavage; RNA array. The conditions noted are these: with glucosamine-6-phosphate. The essentials: (§1)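 Tiles of sequenced MiSeq chips were imaged over ~14 h at 37 °C. On them, barcoded ribozyme variants had been transcribed in situ by E. coli RNA polymerase and were tracked via a hybridised Cy3 probe while glucosamine-6-phosphate (40 μM to 10 mM) in HEPES/KCl/Mg(OAc)2 buffer flowed in. Per-tile medians, normalised to baseline and to non-cleaving reference variants, were fit to one- or two-exponential decays for kobs, and weighted Michaelis–Menten fits gave kcat and KM.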
Turning to AUAAAAGCGCCAGAACUACAGAAAUGUAGUUGACGAGGUGGAGGUUUAUCGAAUUUUCGGCGGAUGGCUCAAAA [A39U C67G C71A], the “self-cleavage kobs at 640 uM GlcN6P” value was 4.67e-05 ± 2.9e-05 s⁻¹. On the same count and under the same terms, to AUAAAAGCGCCAGAACUACAGAAAUGUAGUUGACGAGAAGGAGGUUUAUCUAAUUUUCGGCGGAUGCCUACAAA [G38A G51U C70A] belongs 2.2e-05 ± 1.5e-05 s⁻¹; to AUAAAAGCGCCAGAACUACAGAAAUGUAGUUGACGAGGAGGAGGUUUAUGGAAUUGUCGGCGGAUGCCUCCAAA [C50G U56G], 3.98e-05 ± 2.2e-05 s⁻¹; to AUAAAAGCGCCAGAACUACAGAAAUGUAGUUGACGAGGAGGAGGUUUAUCGAAUUUUAGGCGAAUGCCUCUAAA [C58A G63A C71U], 3.53e-05 ± 2.3e-05 s⁻¹. For the variant AUAAAAGCGCCAGAACUACAGAAAUGUAGUUGACGUGGAGGAGGUUUAUCGAAUUUUCGGCGGAUGGCUCCAAA [A36U C67G], the “self-cleavage kobs at 640 uM GlcN6P” value was 2.79e-05 ± 1.7e-05 s⁻¹. On the same count and under the same terms, to AUAAAAGCGCCAGAACUACAGAAAUGUAGUUGACGAGGAUGAGGGUUAUCGAAUUUUCGGCGGAUGUCUCCAAA [G40U U45G C67U] belongs 1.8e-05 ± 1.7e-05 s⁻¹; to AUAAAAGCGCCAGAACUACAGAAAUGUAGUUGACGACGAGGAGGUUUAUCGAAUUUUCGGCGGAUGCCUCUAAA [G37C C71U], 1.85e-05 ± 1.8e-05 s⁻¹; to AUAAAAGCGCCAGAACUACAGAAAUGUAGUUGACGAGGAGGAGGUUUAUCGAAUUUUCUGCGGAUGCAUCCAAA [G59U C68A], 2.17e-05 ± 1.5e-05 s⁻¹. On the same count and under the same terms, to AUAAAAGCGCCAGAACUACAGAAAUGUAGUUGACGAGGAGGAGGUUUAUUGAAUUUUCGGCGGAUGCUUCCAAA [C50U C68U] belongs 2.04e-05 ± 1.3e-05 s⁻¹; to AUAAAAGCGCCAGAACUACAGAAAUGUAGUUGACGAGCAGGAGGUUUAUCGAAUUUUCGGAGGAUGUCUCCAAA [G38C C61A C67U], 3.17e-05 ± 2.4e-05 s⁻¹; to AUAAAAGCGCCAGAACUACAGAAAUGUAGUUGACGAGGAGGAGGUUUAUCGUAUUUUCGGCGGGUGCUUCCAAA [A52U A64G C68U], 2.85e-05 ± 2.5e-05 s⁻¹. For AUAAAAGCGCCAGAACUACAGAAAUGUAGUUGACGAGGAGGAGGUUAAACGAAUUUUCGGGGGUUGUCUCCAAA [U47A U49A C61G A64U C67U], the “self-cleavage kobs at 640 uM GlcN6P” value was 3.44e-05 ± 2.7e-05 s⁻¹.

For the variant AUAAAAGCGCCAGAACUACAGAAAUGUAGUUGACGAGGAGGAGGUUUAUGCAAAUUUCGGCGGAUGCAUCCAAA [C50G G51C U54A C68A], the “self-cleavage kobs at 640 uM GlcN6P” value was determined as 5.18e-05 ± 2.9e-05 s⁻¹.

Regarding AUAAAAGCGCCAGAACUACAGAAAUGUAGUUGACGAGGAGGAGGUUUAUUGAAUUUUCGGGGGAUGCCUCCAAA [C50U C61G], the “self-cleavage kobs at 640 uM GlcN6P” value worked out at 1.72e-05 ± 1.7e-05 s⁻¹. The same measure, in the same setting: to AUAAAAGCGCCAGAACUACAGAAAUGUAGUUGACGAGGAGGAGGUUUAUGGAAUUUUCGGCAGAUGCCUCCAAA [C50G G62A] belongs 3.33e-05 ± 2.8e-05 s⁻¹; to AUAAAAGCGCCAGAACUACAGAAAUGUAGUUGACGAGGAGGAGGUUUAUCGAGUUUUAGGCGGAUGCCUCAAAA [A53G C58A C71A], 1.48e-05 ± 1.4e-05 s⁻¹; to AUAAAAGCGCCAGAACUACAGAAAUGUAGUUGACGAGGAGGAGGUUUAUUGAAUUUUCGGCGGAUGUCUCCAAA [C50U C67U], 2.8e-05 ± 1.5e-05 s⁻¹. Still for that read-out and setting: to AUAAAAGCGCCAGAACUACAGAAAUGUAGUUGACGAGGAGGAGGUUUAUGCAAUUUUCGGCGGAUGCCUCCAAA [C50G G51C] belongs 2.49e-05 ± 2.1e-05 s⁻¹; to AUAAAAGCGCCAGAACUACAGAAAUGUAGUUGACGAGGAGGAGGUUGAUCGAAGUUCCGGCGGAUGCCUCCAAA [U47G U54G U57C], 2.28e-05 ± 1.9e-05 s⁻¹; to AUAAAAGCGCCAGAACUACAGAAAUGUAGUUGACGAGGAGGAGGUGUAUGGAAUUUUCGGCGGAUGCGUCCAAA [U46G C50G C68G], 2.96e-05 ± 2.7e-05 s⁻¹. On the same count and under the same terms, with AUAAAAGCGCCAGAACUACAGAAAUGUAGUUGACGACGAGGAGGUUUAUCGAAUUUUCUGCGGAUGCCUCCAAA [G37C G59U] the figure was 1.92e-05 ± 1.9e-05 s⁻¹. Regarding AUAAAAGCGCCAGAACUACAGAAAUGUAGUUGACGAGGAGGAGGUUUAUCGCAUUUUCGGCGGAAGGCUCCAAA [A52C U65A C67G], the “self-cleavage kobs at 640 uM GlcN6P” value was determined as 2.34e-05 ± 2.2e-05 s⁻¹. Take AUAAAAGCGCCAGAACUACAGAAAUGUAGUUGACGAGGAGGAGGUUUGUCGAAUUUUCGGCGGAUGUCUCCAAA [A48G C67U]: the “self-cleavage kobs at 640 uM GlcN6P” value turned out to be 2.84e-05 ± 1.8e-05 s⁻¹. Regarding AUAAAAGCGCCAGAACUACAGAAAUGUAGUUGACGAGGAGGAUGUUUAUCGAAUUUUCGGCGGAUGUUUCCAAA [G43U C67U C68U], the “self-cleavage kobs at 640 uM GlcN6P” value was found to be 1.76e-05 ± 1.4e-05 s⁻¹. Still for that read-out and setting: to AUAAAAGCGCCAGAACUACAGAAAUGUAGUUGACGAGGAGGAGGUUUAUCGAAUUUUCUGGGGAUGCGUCCAAA [G59U C61G C68G] belongs 4.42e-05 ± 3.2e-05 s⁻¹; to AUAAAAGCGCCAGAACUACAGAAAUGUAGUUGACGAGGGGCAGGUUUAUCGAAUUUUCGGCGGAUGCCUCCAAA [A39G G41C], 3.16e-05 ± 2.1e-05 s⁻¹. As to AUAAAAGCGCCAGAACUACAGAAAUGUAGUUGACGAGGAGGAGGUUUAUCGAAUUUUUGGCGGAUGCAUCCAAA [C58U C68A], the “self-cleavage kobs at 640 uM GlcN6P” value is 2.58e-05 ± 1.8e-05 s⁻¹.

As for AUAAAAGCGCCAGAACUACAGAAAUGUAGUUGACGAAGAGGAGGUUUAUCGUAUUUACGGCGGAUGCCUCCAAA [G37A A52U U57A], the “self-cleavage kobs at 640 uM GlcN6P” value came to 3.01e-05 ± 2e-05 s⁻¹.

Variants of B1 are the subject of another data set. Description: self-cleavage kobs at 160 uM GlcN6P; higher = faster cleavage; RNA array. The settings on record: with glucosamine-6-phosphate. The essentials:
as §1
For the variant AUAAAAGCGCCAGAACUACAGAAAUGUAGUUGACGAGGAGGAGGUUUAUCGAAUUUUCUGCGGAUGCAUCCAAA [G59U C68A], the “self-cleavage kobs at 160 uM GlcN6P” value turned out to be 2.13e-05 ± 2.1e-05 s⁻¹. As to AUAAAAGCGCCAGAACUACAGAAAUGUAGUUGACGAGGAGGAGGUUUAUUGAAUUUUCGGCGGAUGCUUCCAAA [C50U C68U], the “self-cleavage kobs at 160 uM GlcN6P” value worked out at 1.61e-05 ± 1.3e-05 s⁻¹.

As to AUAAAAGCGCCAGAACUACAGAAAUGUAGUUGACGAGGAGGAGGUUUAUUGAAUUUUCGGCGGAUGUCUCCAAA [C50U C67U], the “self-cleavage kobs at 160 uM GlcN6P” value was 1.55e-05 ± 1.4e-05 s⁻¹.

Variants of B1 are the subject of the next data set. The experiment in a line: self-cleavage kobs at 2500 uM GlcN6P; higher = faster cleavage; RNA array. The conditions noted are these: with glucosamine-6-phosphate. The method in brief:
as §1
AUAAAAGCGCCAGAACUACAGAAAUGUAGUUGACGAGGAGGAGGUUUAUCGAAUUUUCUGCGGAUGCAUCCAAA [G59U C68A]: the “self-cleavage kobs at 2500 uM GlcN6P” value was determined as 2.8e-05 ± 1.8e-05 s⁻¹. As for AUAAAAGCGCCAGAACUACAGAAAUGUAGUUGACGAGCAGGAGGUUUAUCGAAUUUUCGGAGGAUGUCUCCAAA [G38C C61A C67U], the “self-cleavage kobs at 2500 uM GlcN6P” value was 3.7e-05 ± 2.1e-05 s⁻¹.

The next data set covers variants of B1. Description: self-cleavage kobs at 10000 uM GlcN6P; higher = faster cleavage; RNA array. The settings on record: with glucosamine-6-phosphate. The essentials:
as §1
As to AUAAAAGCGCCAGAACUACAGAAAUGUAGUUGACGAGGAGGAGGUUUAUUGAAUUUUCGGCGGAUGCUUCCAAA [C50U C68U], the “self-cleavage kobs at 10000 uM GlcN6P” value worked out at 1.58e-05 ± 8.6e-06 s⁻¹. On the same count and under the same terms, to AUAAAAGCGCCAGAACUACAGAAAUGUAGUUGACGAGGAGGAGGUUUAUGGAAUUUUCGGCAGAUGCCUCCAAA [C50G G62A] belongs 0.00056 ± 0.00043 s⁻¹; to AUAAAAGCGCCAGAACUACAGAAAUGUAGUUGACGAGGAGGAGGUUUAUUGAAUUUUCGGCGGAUGUCUCCAAA [C50U C67U], 1.68e-05 ± 9.4e-06 s⁻¹; to AUAAAAGCGCCAGAACUACAGAAAUGUAGUUGACGAGGAGGAGGUUUGUCGAAUUUUCGGCGGAUGUCUCCAAA [A48G C67U], 2.16e-05 ± 1.2e-05 s⁻¹.
